According to publication PMC10657444, “Design and evaluation of tadpole-like conformational antimicrobial peptides” (Communications Biology, 2023):
Where “and” joins values, the source holds several entries; their conditions need not be identical. Equal values may be shown once. Further values from the same series stand in other lists. Residues, ends and D or L forms follow the SMILES beside them.

Tests used:
MRSA USA 300 [1] = assay: Membrane permeability, SYTOX Green; assay type: cell-based, Staphylococcus aureus
Protocol: Fluorescent probe SYTOX^TM Green (Invitrogen/ Life Technologies, S7020) was used to analyze the effect of HT2 and RI-HT2 on membrane permeability of MRSA USA 300 and K. pneumoniae ATCC 700603 as described elsewhere. SYTOX^TM Green is a DNA binding dye that is fluorescent when bound to nucleic acids and only enters cells with compromised plasma membranes. MRSA USA 300 and K. pneumoniae ATCC 700603 were cultured in LB broth to mid log phase at 37 °C and washed with PBS and resuspended (OD595 ≈ 0.1) in the same buffer. SYTOX^TM Green was added into the cell suspension with a final concentration of 5 μM and being kept in dark for 20 min. 98 µL pre-treated cell suspension was transferred into wells of 96-well glass black plates. Then, 2 µL of compound or DMSO were added to initiate the reaction. The final concentrations of HT2 and RI-HT2 were 1 ×, 2 ×, 4 × and 8 × MIC. Fluorescence strength was measured with excitation/emission wavelength of 485/528 nm every 5 min for 60 min.

MRSA USA 300 [2] = assay: Membrane depolarization assay, DiSC3(5); assay type: cell-based, Staphylococcus aureus
Protocol: MRSA USA 300 and K. pneumoniae ATCC 700603 were inoculated into 5 mL of LB and shaken at 37°C and 225 rpm to OD600 ≈ 0.5 (i.e., mid-logarithmic phase). Bacteria were collected by centrifugation at 8000 rpm for 5 min, and washed twice with assay buffer (5 mM HEPES, 20 mM glucose, 10 mM KCl, pH 7.2). Bacteria were resuspended in the assay buffer to OD595 ≈ 0.1. DiSC3(5) was added to the cells at final concentration of 0.3 µM, wrapped with aluminum foil, and incubated at 37°C, until a stable fluorescence was observed. Two microliter of compound or DMSO were transferred into 96-well black walled polystyrene plates, to which was added 98 µL per well of the dye-saturated bacterial cells to initiate the reaction. The final concentration of HT2 and RI-HT2 were 1 ×, 2 ×, 4 × and 8 × MIC. Plates were immediately read on an Envison at λex = 622 nm/ λem = 670 nm with a kinetic program (reading every 1 min for 10 min) until the maximal intensity achieved was observed.

CC[C@H](C)[C@H](NC(=O)[C@H](CCCNC(=N)N)NC(=O)[C@H](CCCNC(=N)N)NC(=O)[C@H](CC(C)C)NC(=O)[C@H](Cc1ccccc1)NC(=O)[C@@H](N)CCCNC(=N)N)C(=O)N[C@@H](Cc1ccccc1)C(=O)N[C@@H](Cc1ccccc1)C(=O)N[C@@H](Cc1ccccc1)C(=O)N[C@@H](Cc1ccccc1)C(N)=O [HT2] (H-RFLRRIFFFF-NH2)
Fluorescence intensity (MRSA USA 300 [1]; 2 × MIC, time 0 min): 1131 and 1217 and 1235 | Fluorescence intensity (MRSA USA 300 [1]; 2 × MIC, time 5 min): 20197 and 21230 and 20865 | Fluorescence intensity (MRSA USA 300 [1]; 2 × MIC, time 10 min): 25460 and 25912 and 25261 | Fluorescence intensity (MRSA USA 300 [1]; 2 × MIC, time 15 min): 28346 and 28832 and 27920 | Fluorescence intensity (MRSA USA 300 [1]; 2 × MIC, time 20 min): 30460 and 31033 and 29642 | Fluorescence intensity (MRSA USA 300 [1]; 4 × MIC, time 0 min): 1186 and 1404 and 1281 | Fluorescence intensity (MRSA USA 300 [1]; 4 × MIC, time 5 min): 40226 and 40219 and 41612 | Fluorescence intensity (MRSA USA 300 [1]; 4 × MIC, time 10 min): 48704 and 48472 and 50316 | Fluorescence intensity (MRSA USA 300 [1]; 4 × MIC, time 15 min): 53321 and 53163 and 55112 | Fluorescence intensity (MRSA USA 300 [1]; 4 × MIC, time 20 min): 56328 and 55931 and 58102 | Fluorescence intensity (MRSA USA 300 [1]; 8 × MIC, time 0 min): 1674 and 1277 | Fluorescence intensity (MRSA USA 300 [1]; 8 × MIC, time 5 min): 46924 and 49356 and 49374 | Fluorescence intensity (MRSA USA 300 [1]; 8 × MIC, time 10 min): 54383 and 56666 and 56984 | Fluorescence intensity (MRSA USA 300 [1]; 8 × MIC, time 15 min): 57832 and 59952 and 60652 | Fluorescence intensity (MRSA USA 300 [1]; 8 × MIC, time 20 min): 59829 and 61957 and 62485 | Fluorescence intensity (MRSA USA 300 [1]; MIC, time 5 min): 12522 and 12645 and 12185 | Fluorescence intensity (MRSA USA 300 [1]; MIC, time 10 min): 14676 and 14962 and 14128 | Fluorescence intensity (MRSA USA 300 [1]; MIC, time 15 min): 16119 and 16290 and 15431 | Fluorescence intensity (MRSA USA 300 [1]; MIC, time 20 min): 16841 and 16805 and 16042 | Fluorescence intensity (MRSA USA 300 [2]; 2 × MIC, time 0 min): 407359 and 437585 and 424634 | Fluorescence intensity (MRSA USA 300 [2]; 2 × MIC, time 2 min): 412470 and 415315 and 402376 | Fluorescence intensity (MRSA USA 300 [2]; 2 × MIC, time 3 min): 516376 and 562498 and 601474 | Fluorescence intensity (MRSA USA 300 [2]; 2 × MIC, time 4 min): 510300 and 570800 and 630470 | Fluorescence intensity (MRSA USA 300 [2]; 2 × MIC, time 5 min): 496322 and 506547 and 579475 | Fluorescence intensity (MRSA USA 300 [2]; 2 × MIC, time 6 min): 456323 and 447824 and 539307 | Fluorescence intensity (MRSA USA 300 [2]; 2 × MIC, time 7 min): 440360 and 434093 and 489563 | Fluorescence intensity (MRSA USA 300 [2]; 2 × MIC, time 8 min): 452668 and 427523 and 487829 | Fluorescence intensity (MRSA USA 300 [2]; 2 × MIC, time 9 min): 422148 and 429265 and 465890 | Fluorescence intensity (MRSA USA 300 [2]; 2 × MIC, time 10 min): 449615 and 438352 and 460148 | Fluorescence intensity (MRSA USA 300 [2]; 4 × MIC, time 0 min): 441413 and 536565 and 417503 | Fluorescence intensity (MRSA USA 300 [2]; 4 × MIC, time 2 min): 426554 and 514956 and 416285 | Fluorescence intensity (MRSA USA 300 [2]; 4 × MIC, time 3 min): 717544 and 870397 and 699081 | Fluorescence intensity (MRSA USA 300 [2]; 4 × MIC, time 4 min): 757392 and 920774 and 755685 | Fluorescence intensity (MRSA USA 300 [2]; 4 × MIC, time 5 min): 764744 and 883071 and 715560 | Fluorescence intensity (MRSA USA 300 [2]; 4 × MIC, time 6 min): 838405 and 834258 and 708253 | Fluorescence intensity (MRSA USA 300 [2]; 4 × MIC, time 7 min): 823066 and 809554 and 784437 | Fluorescence intensity (MRSA USA 300 [2]; 4 × MIC, time 8 min): 888884 and 803808 and 844536 | Fluorescence intensity (MRSA USA 300 [2]; 4 × MIC, time 9 min): 871568 and 912228 and 905614 | Fluorescence intensity (MRSA USA 300 [2]; 4 × MIC, time 10 min): 891952 and 894730 and 891104 | Fluorescence intensity (MRSA USA 300 [2]; 8 × MIC, time 0 min): 427661 and 397617 and 379474 | Fluorescence intensity (MRSA USA 300 [2]; 8 × MIC, time 2 min): 417704 and 400976 and 367495 | Fluorescence intensity (MRSA USA 300 [2]; 8 × MIC, time 3 min): 823344 and 814418 and 781673 | Fluorescence intensity (MRSA USA 300 [2]; 8 × MIC, time 4 min): 953549 and 861939 and 867753 | Fluorescence intensity (MRSA USA 300 [2]; 8 × MIC, time 5 min): 947843 and 975941 and 1002968 | Fluorescence intensity (MRSA USA 300 [2]; 8 × MIC, time 6 min): 1148941 and 1125882 and 1075269 | Fluorescence intensity (MRSA USA 300 [2]; 8 × MIC, time 7 min): 1294211 and 1246379 and 1153072 | Fluorescence intensity (MRSA USA 300 [2]; 8 × MIC, time 8 min): 1320642 and 1222140 and 1153431 | Fluorescence intensity (MRSA USA 300 [2]; 8 × MIC, time 9 min): 1265654 and 1251184 and 1176714 | Fluorescence intensity (MRSA USA 300 [2]; 8 × MIC, time 10 min): 1308322 and 1257311 and 1209416 | Fluorescence intensity (MRSA USA 300 [2]; MIC, time 0 min): 387778 and 420337 and 427383 | Fluorescence intensity (MRSA USA 300 [2]; MIC, time 2 min): 408657 and 432470 and 415073 | Fluorescence intensity (MRSA USA 300 [2]; MIC, time 3 min): 528052 and 492360 and 502885 | Fluorescence intensity (MRSA USA 300 [2]; MIC, time 4 min): 519221 and 460003 and 458630 | Fluorescence intensity (MRSA USA 300 [2]; MIC, time 5 min): 456271 and 419492 and 438575 | Fluorescence intensity (MRSA USA 300 [2]; MIC, time 6 min): 442184 and 426092 and 424293 | Fluorescence intensity (MRSA USA 300 [2]; MIC, time 7 min): 424790 and 424169 and 440889 | Fluorescence intensity (MRSA USA 300 [2]; MIC, time 8 min): 429913 and 411441 and 435378 | Fluorescence intensity (MRSA USA 300 [2]; MIC, time 9 min): 435238 and 427525 and 409496 | Fluorescence intensity (MRSA USA 300 [2]; MIC, time 10 min): 448666 and 423826 and 425972
